# Data as given in the supplement of paper PMC8728848.
# The list shows a part of the results.
# B1: PX14379D-pdi-530-26-530 (Parabacteroides distasonis) (protein)
# chain: DETVYDKLPADDFGQSTAELNALIGNSHNTMKKFWTEYMHLSECSGSMAVTPTRRGGDWYDGGQYREIYMHTWTSQTSRVKSAWKAATEAIGTCNEAIRKLQNSEILTEEEKAQDVADLRGVRAFWIYVMMDYWGNIPLLTEFHPTDKVFPGNSSRQEVFDWLIQEVEEIKDICPPATTENYGSFTQGAAYSLLAKLYLNAEAWGVTFSGNAYQKVIDNCDKVMAMGYILEPNWKDNFSVTNENSKEAILAATFSSSDTGNDGNVKNELHNNTLHYKDYLSLGITASGTWNGICAQPEYVRLFDEEDARLDGTFLTGLMIDKSTGKPIMTDHNNELNHTIDVNMIPGMEYDGTNWSAVEQHDGARCFKWEFASDLTSSMGNDFHIFRLADIYLMKAEALLRGGGSVSEATALVNTIRERGYGNSDHNYATVTLKEVQLERRLELAWEVYSRQDDIRFGCFTTGMWPQSNCERKADDYLKLLPVSQDAWQVNPNLKQNPGYAAFSK
# Experiments:
# Assay in all cases: glycan array binding signal (z-score within array); higher = stronger binding
# Conditions in all cases: glycan notation: IUPAC condensed, linker removed
# [1] = target: Gal(b1-3)GlcNAc(b1-6)[Gal(b1-3)]GalNAc
# Outline: (§1)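 The Consortium for Functional Glycomics database supplied 3228 glycan arrays, of which those lacking an available protein sequence were dropped. The binding signal, a within-array Z-score, was averaged across arrays of the same protein sequence and across linkers. Negative scores can be read as non-binding.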
# Gal(b1-3)GlcNAc6S = target: Gal(b1-3)GlcNAc6S
# Outline: as §1
# [2] = target: Gal(b1-3)[Fuc(a1-4)]GlcNAc
# Outline: as §1
# [3] = target: Gal(b1-3)[Fuc(a1-4)]GlcNAc(b1-2)Man
# Outline: as §1
# [4] = target: Gal(b1-3)[Fuc(a1-4)]GlcNAc(b1-2)Man(a1-3)[Gal(b1-3)[Fuc(a1-4)]GlcNAc(b1-2)Man(a1-6)]Man(b1-4)GlcNAc(b1-4)[Fuc(a1-6)]GlcNAc
# Outline: as §1
# [5] = target: Gal(b1-3)[Fuc(a1-4)]GlcNAc(b1-3)Gal(b1-3)[Fuc(a1-4)]GlcNAc
# Outline: as §1
# [6] = target: Gal(b1-3)[Fuc(a1-4)]GlcNAc(b1-3)Gal(b1-4)[Fuc(a1-3)]GlcNAc
# Outline: as §1
# [7] = target: Gal(b1-3)[Fuc(a1-4)]GlcNAc(b1-6)GalNAc
# Outline: as §1
# [8] = target: Gal(b1-3)[GlcNAc(b1-6)]GalNAc
# Outline: as §1
# [9] = target: Gal(b1-3)[Neu5Ac(a2-6)]GalNAc
# Outline: as §1
# [10] = target: Gal(b1-3)[Neu5Ac(a2-6)]GlcNAc(b1-4)Gal(b1-4)Glc
# Outline: as §1
# [11] = target: Gal(b1-3)[Neu5Ac(b2-6)]GalNAc
# Outline: as §1
# Gal(b1-4)Gal = target: Gal(b1-4)Gal
# Outline: as §1
# [12] = target: Gal(b1-4)GalNAc(a1-3)[Fuc(a1-2)]Gal(b1-4)GlcNAc
# Outline: as §1
# [13] = target: Gal(b1-4)GalNAc(b1-3)[Fuc(a1-2)]Gal(b1-4)GlcNAc
# Outline: as §1
# Gal(b1-4)Glc = target: Gal(b1-4)Glc
# Outline: as §1
# Gal(b1-4)Glc6S = target: Gal(b1-4)Glc6S
# Outline: as §1
# Gal(b1-4)GlcNAc = target: Gal(b1-4)GlcNAc
# Outline: as §1
# [14] = target: Gal(b1-4)GlcNAc(a1-6)Gal(b1-4)GlcNAc
# Outline: as §1
# Gal(b1-4)GlcNAc(b1-2)Man = target: Gal(b1-4)GlcNAc(b1-2)Man
# Outline: as §1
# [15] = target: Gal(b1-4)GlcNAc(b1-2)Man(a1-3)Man(b1-4)GlcNAc(b1-4)GlcNAc
# Outline: as §1
# [16] = target: Gal(b1-4)GlcNAc(b1-2)Man(a1-3)[Gal(b1-4)GlcNAc(b1-2)Man(a1-6)]Man(b1-4)GlcNAc(b1-4)GlcNAc
# Outline: as §1
# [17] = target: Gal(b1-4)GlcNAc(b1-2)Man(a1-3)[Gal(b1-4)GlcNAc(b1-2)Man(a1-6)]Man(b1-4)GlcNAc(b1-4)[Fuc(a1-6)]GlcNAc
# Outline: as §1
# [18] = target: Gal(b1-4)GlcNAc(b1-2)Man(a1-3)[Gal(b1-4)GlcNAc(b1-2)Man(a1-6)][Gal(b1-4)GlcNAc(b1-4)]Man(b1-4)GlcNAc(b1-4)[Fuc(a1-6)]GlcNAc
# Outline: as §1
# [19] = target: Gal(b1-4)GlcNAc(b1-2)Man(a1-3)[Gal(b1-4)GlcNAc(b1-2)Man(a1-6)][GlcNAc(b1-4)]Man(b1-4)GlcNAc(b1-4)[Fuc(a1-6)]GlcNAc
# Outline: as §1
# [20] = target: Gal(b1-4)GlcNAc(b1-2)Man(a1-3)[GlcNAc(b1-2)Man(a1-6)]Man(b1-4)GlcNAc(b1-4)GlcNAc
# Outline: as §1
# [21] = target: Gal(b1-4)GlcNAc(b1-2)Man(a1-3)[GlcNAc(b1-4)][Gal(b1-4)GlcNAc(b1-2)Man(a1-6)]Man(b1-4)GlcNAc(b1-4)GlcNAc
# Outline: as §1
# [22] = target: Gal(b1-4)GlcNAc(b1-2)Man(a1-3)[Man(a1-6)]Man(b1-4)GlcNAc(b1-4)GlcNAc
# Outline: as §1
# [23] = target: Gal(b1-4)GlcNAc(b1-2)Man(a1-6)Man(b1-4)GlcNAc(b1-4)GlcNAc
# Outline: as §1
# [24] = target: Gal(b1-4)GlcNAc(b1-2)Man(a1-6)[GlcNAc(b1-2)Man(a1-3)]Man(b1-4)GlcNAc(b1-4)GlcNAc
# Outline: as §1
# [25] = target: Gal(b1-4)GlcNAc(b1-2)Man(a1-6)[Man(a1-3)]Man(b1-4)GlcNAc(b1-4)GlcNAc
# Outline: as §1
# [26] = target: Gal(b1-4)GlcNAc(b1-2)[Gal(b1-4)GlcNAc(b1-4)]Man(a1-3)[Gal(b1-4)GlcNAc(b1-2)Man(a1-6)]Man(b1-4)GlcNAc(b1-4)GlcNAc
# Outline: as §1
# [27] = target: Gal(b1-4)GlcNAc(b1-2)[Gal(b1-4)GlcNAc(b1-4)]Man(a1-3)[Gal(b1-4)GlcNAc(b1-2)[Gal(b1-4)GlcNAc(b1-6)]Man(a1-6)]Man(b1-4)GlcNAc(b1-4)GlcNAc
# Outline: as §1
# [28] = target: Gal(b1-4)GlcNAc(b1-2)[Gal(b1-4)GlcNAc(b1-4)]Man(a1-3)[GlcNAc(b1-4)][Gal(b1-4)GlcNAc(b1-2)Man(a1-6)]Man(b1-4)GlcNAc(b1-4)GlcNAc
# Outline: as §1
# [29] = target: Gal(b1-4)GlcNAc(b1-2)[Gal(b1-4)GlcNAc(b1-4)]Man(a1-3)[GlcNAc(b1-4)][Gal(b1-4)GlcNAc(b1-2)[Gal(b1-4)GlcNAc(b1-6)]Man(a1-6)]Man(b1-4)GlcNAc(b1-4)GlcNAc
# Outline: as §1
# [30] = target: Gal(b1-4)GlcNAc(b1-2)[Gal(b1-4)GlcNAc(b1-6)]Man(a1-6)[Gal(b1-4)GlcNAc(b1-2)Man(a1-3)]Man(b1-4)GlcNAc(b1-4)GlcNAc
# Outline: as §1
# [31] = target: Gal(b1-4)GlcNAc(b1-2)[Gal(b1-4)GlcNAc(b1-6)]Man(a1-6)[Gal(b1-4)GlcNAc(b1-2)Man(a1-3)]Man(b1-4)GlcNAc(b1-4)[Fuc(a1-6)]GlcNAc
# Outline: as §1
# [32] = target: Gal(b1-4)GlcNAc(b1-2)[Gal(b1-4)GlcNAc(b1-6)]Man(a1-6)[GlcNAc(b1-4)][Gal(b1-4)GlcNAc(b1-2)Man(a1-3)]Man(b1-4)GlcNAc(b1-4)GlcNAc
# Outline: as §1
# [33] = target: Gal(b1-4)GlcNAc(b1-2)[Gal(b1-4)GlcNAc(b1-6)]Man(a1-6)[GlcNAc(b1-4)][Gal(b1-4)GlcNAc(b1-2)[Gal(b1-4)GlcNAc(b1-4)]Man(a1-3)]Man(b1-4)GlcNAc(b1-4)[Fuc(a1-6)]GlcNAc
# Outline: as §1
# [34] = target: Gal(b1-4)GlcNAc(b1-3)Gal(b1-3)GalNAc
# Outline: as §1
# [35] = target: Gal(b1-4)GlcNAc(b1-3)Gal(b1-3)GlcNAc
# Outline: as §1
# [36] = target: Gal(b1-4)GlcNAc(b1-3)Gal(b1-4)Glc
# Outline: as §1
# [37] = target: Gal(b1-4)GlcNAc(b1-3)Gal(b1-4)GlcNAc
# Outline: as §1
# [38] = target: Gal(b1-4)GlcNAc(b1-3)Gal(b1-4)GlcNAc(b1-2)Man(a1-3)[Gal(b1-4)GlcNAc(b1-3)Gal(b1-4)GlcNAc(b1-2)Man(a1-6)]Man(b1-4)GlcNAc(b1-4)GlcNAc
# Outline: as §1
# [39] = target: Gal(b1-4)GlcNAc(b1-3)Gal(b1-4)GlcNAc(b1-2)Man(a1-3)[Gal(b1-4)GlcNAc(b1-3)Gal(b1-4)GlcNAc(b1-2)Man(a1-6)]Man(b1-4)GlcNAc(b1-4)[Fuc(a1-6)]GlcNAc
# Outline: as §1
binder,measurement,setting,value
B1,glycan array binding signal (z-score),[1],-1.1
same,glycan array binding signal (z-score),Gal(b1-3)GlcNAc6S,0.905
same,glycan array binding signal (z-score),[2],-0.849
same,glycan array binding signal (z-score),[3],-1.24
same,glycan array binding signal (z-score),[4],0.415
same,glycan array binding signal (z-score),[5],-0.536
same,glycan array binding signal (z-score),[6],-0.252
same,glycan array binding signal (z-score),[7],-0.682
same,glycan array binding signal (z-score),[8],-0.163
same,glycan array binding signal (z-score),[9],-0.548
same,glycan array binding signal (z-score),[10],0.468
same,glycan array binding signal (z-score),[11],-1.06
same,glycan array binding signal (z-score),Gal(b1-4)Gal,-0.309
same,glycan array binding signal (z-score),[12],-0.252
same,glycan array binding signal (z-score),[13],-0.422
same,glycan array binding signal (z-score),Gal(b1-4)Glc,-0.567
same,glycan array binding signal (z-score),Gal(b1-4)Glc6S,-0.07
same,glycan array binding signal (z-score),Gal(b1-4)GlcNAc,-0.702
same,glycan array binding signal (z-score),[14],-0.555
same,glycan array binding signal (z-score),Gal(b1-4)GlcNAc(b1-2)Man,0.169
same,glycan array binding signal (z-score),[15],0.674
same,glycan array binding signal (z-score),[16],-0.165
same,glycan array binding signal (z-score),[17],-0.591
same,glycan array binding signal (z-score),[18],-0.365
same,glycan array binding signal (z-score),[19],-0.865
same,glycan array binding signal (z-score),[20],0.214
same,glycan array binding signal (z-score),[21],-0.811
same,glycan array binding signal (z-score),[22],-0.319
same,glycan array binding signal (z-score),[23],0.173
same,glycan array binding signal (z-score),[24],-0.083
same,glycan array binding signal (z-score),[25],-0.735
same,glycan array binding signal (z-score),[26],0.028
same,glycan array binding signal (z-score),[27],-1.27
same,glycan array binding signal (z-score),[28],0.047
same,glycan array binding signal (z-score),[29],-0.002
same,glycan array binding signal (z-score),[30],0.197
same,glycan array binding signal (z-score),[31],0.548
same,glycan array binding signal (z-score),[32],0.184
same,glycan array binding signal (z-score),[33],-0.675
same,glycan array binding signal (z-score),[34],-0.744
same,glycan array binding signal (z-score),[35],-1.08
same,glycan array binding signal (z-score),[36],-0.582
same,glycan array binding signal (z-score),[37],-0.907
same,glycan array binding signal (z-score),[38],2.97
same,glycan array binding signal (z-score),[39],0.215

# A second format for some results above:
binder	measurement	setting	value
B1	glycan array binding signal (z-score)	[7]	-0.682
same	glycan array binding signal (z-score)	[14]	-0.555
same	glycan array binding signal (z-score)	[30]	0.197
